In article PMC5650142, “GPR40 partial agonists and AgoPAMs: Differentiating effects on glucose and hormonal secretions in the rodent” (PLoS ONE, 2017):
Several values for one entry are separate records, joined by “and”; a condition that tells them apart may be missing. Identical values can stand only once. Further values from the same series stand in other lists.

Tested on: wild type C57BL/6 and GLP-1R-/- mice
Assay: Mouse glucose tolerance test (IPGTT, wild type and GLP-1R-/- mice)
Assay type: in vivo
Details: Time 40, individual animals
Protocol: Wild type C57BL/6 mice and GLP-1R^-/- mice were fed a high fat diet (D12492i, Research Diets) for 6 weeks prior to GTT. On the day of study, mice were fasted at 1 h post lights on, and body weights were measured. […] Mice were then dosed PO at a volume of 10 ml/kg with vehicle (0.5% methylcellulose), MK-2305 (a GPR40 partial agonist described in Hauge et al) at 10 mg/kg, or AP1 at 30 mg/kg. Dosages of MK-2305 and AP1 were administered at maximal efficacious doses as determined by acute dose titrations with efficacy determined via reduction in glucose during an IPGTT (data not shown). […] Blood glucose was measured again (time = 0) just prior to an intraperitoneal (IP) dextrose challenge of 1 g/kg at 10 ml/kg dose volume (Dextrose, Hospira Inc., Lake Forrest IL). A subset of vehicle treated mice was injected with 0.9% NaCl saline to serve as negative control. Blood glucose was then measured at 10, 20, 40, 60, and 120 min after challenge. To capture insulin secretion during the IPGTT, blood via tail vein was collected at t = - 60, 0, 10, 20, 40, 60 min post challenge.
Net AUC was calculated by subtracting the average AUC of the saline group from each groups’ total AUC.
Blood for insulin, glucagon, GLP-1, GIP, and PYY measurements was collected into K2EDTA Microtainer tubes (BD, Franklin Lakes, NJ) pre-treated with DPP4 inhibitor (Millipore, Billerica, MA) and cOmplete™ Protease Inhibitor Cocktail Tablets (Roche Diagnostics, Indianapolis, IN). Tubes were centrifuged for 10 minutes at 5000 RPM, and plasma was aliquotted for analysis. Plasma insulin levels were measured via EIA (Mesoscale Discovery ELISA Kit, Gaithersburg MD). Rat plasma total GLP-1 was measured using Total GLP-1 (ver.2) Assay Kit (Cat#: K150JVC). The measurement of active GLP-1 was carried out in a similar manner as that described for total GLP-1 assay with the exception that MSD Active GLP-1 (ver. 2) assay kit (Cat# K150JWC) was used. Rat plasma glucagon was measured using an in-house glucagon assay developed as a MSD format sandwich immunoassay (Merck & Co., Inc., MRL, Kenilworth, NJ USA). The antibody specificity was cross validated via mass- spec using procedures described in Lee et al. Briefly, MSD Streptavidin Gold plates were coated with 2 μg/ml biotin mouse monoclonal antibody generated to glucagon. Test samples were added to the plates and a separate Sulfo- tagged monoclonal antibody was used to detect the captured glucagon protein (2 μg/ml). The ELISA was carried out in the standard reagents in the MSD format. The plate was read on the SECTOR Imager 6000 Reader. Metabolic hormones GIP (Gastric Inhibitory Polypeptide) and PYY (Peptide YY) were measured in rat plasma using the Rat Metabolic Magnetic Bead Panel (EMD Millipore, Billerica, MA). The assay was performed according to manufacturer protocol.

SMILES | Blood Glucose (KO mice, 30 mpk, 30 mg/kg) | Blood Glucose (WT mice, 30 mpk, 30 mg/kg) | Blood Glucose (KO mice, 10 mpk, 10 mg/kg) | Blood Glucose (WT mice, 10 mpk, 10 mg/kg)
COc1ccc(F)c(-c2ccc([C@@H]3CCc4ccc([C@H](C5CC5)[C@H](C)C(=O)O)cc4O3)cc2)c1 [AP1] | 119 mg/dl and 82 mg/dl (2×) and 64 mg/dl and 107 mg/dl | 86 mg/dl (2×) and 72 mg/dl and 98 mg/dl and 110 mg/dl and 94 mg/dl and 100 mg/dl | – | –
O=C1NC(=O)C(C2CCOc3cc(Oc4ccc(C(F)(F)F)cc4Cl)ccc32)S1 (stereo not shown) [MK-2305, reference compound] | – | – | 411 mg/dL and 383 mg/dL and 350 mg/dL and 486 mg/dL | 314 mg/dL and 325 mg/dL and 330 mg/dL and 219 mg/dL and 349 mg/dL and 316 mg/dL and 486 mg/dL
